Data taken from publication PMC12855868, “Deep Mutational Scanning of FDX1 Identifies Key Structural Determinants of Lipoylation and Cuproptosis” (Nature Communications, 2025).
Where a chain is given by its changes, count along the chain named. In names and notes the source's numbering stands. These are yes or no findings as the source states them, for the method shown. For some of these results: In cells and extracts the contact can be indirect. Some entries that bind do so weakly or less than the wild type. Tags and fused reporters may be left off the sequences shown.

B1: WT FDX1, full length, pMT025 (no tag), expressed in HEK293T (protein, UniProt P10109 61-184)
chain: SSSEDKITVHFINRDGETLTTKGKVGDSLLDVVVENNLDIDGFGACEGTLACSTCHLIFEDHIYEKLDAITDEENDMLDLAYGLTDRSRLGCQICLTKSMDNMTVRVPETVADARQSIDVGKTS
B2: FDX1 WT (aa 61-184), N-terminal hexa-histidine tag (domain or fragment, human, UniProt P10109 61-184, looked up)
chain: B1 chain
notes: ferredoxin 1 (FDX1), human, residues 61-184, lacking the mitochondrial transit peptide; pET28a; Carries a reconstituted Fe-S cluster; In the FDX1-LIAS TRIC assay it was labelled on the His tag with the Red-Tris-NTA 2nd generation dye; in the FDXR assay it was the unlabelled ligand; also called ferredoxin 1; source: E. coli BL21 (DE3) carrying pDB1282, purified, iron-sulfur cluster reconstituted; …
B3: FDX1 D136R (aa 61-184), N-terminal hexa-histidine tag (domain or fragment, human, UniProt P10109 61-184, looked up)
chain: B1 chain with D76R
notes: ferredoxin 1 (FDX1), human, residues 61-184, lacking the mitochondrial transit peptide; pET28a; Carries a reconstituted Fe-S cluster; Labelled with Red-Tris-NTA dye in the LIAS assay only; source: E. coli BL21 (DE3) carrying pDB1282, purified, iron-sulfur cluster reconstituted; not shown: His6, N-terminal, kept
B4: FDX1 D139R (aa 61-184), N-terminal hexa-histidine tag (domain or fragment, human, UniProt P10109 61-184, looked up)
chain: B1 chain with D79R
notes: as for B3

Experiments:
[1] = biological target: T1, C-terminally Strep-Tag II (STII)-tagged FDXR (human) (UniProt P22570); test: co-IP; Strep-Tactin magnetic beads on lysates (PBS, 1% IGEPAL, protease and phosphatase inhibitors) of HEK293T stably expressing C-terminally STII-tagged DLD or FDXR and transiently transfected with FDX1 constructs; 30 min in the cold; immunoblot
T1 sequence: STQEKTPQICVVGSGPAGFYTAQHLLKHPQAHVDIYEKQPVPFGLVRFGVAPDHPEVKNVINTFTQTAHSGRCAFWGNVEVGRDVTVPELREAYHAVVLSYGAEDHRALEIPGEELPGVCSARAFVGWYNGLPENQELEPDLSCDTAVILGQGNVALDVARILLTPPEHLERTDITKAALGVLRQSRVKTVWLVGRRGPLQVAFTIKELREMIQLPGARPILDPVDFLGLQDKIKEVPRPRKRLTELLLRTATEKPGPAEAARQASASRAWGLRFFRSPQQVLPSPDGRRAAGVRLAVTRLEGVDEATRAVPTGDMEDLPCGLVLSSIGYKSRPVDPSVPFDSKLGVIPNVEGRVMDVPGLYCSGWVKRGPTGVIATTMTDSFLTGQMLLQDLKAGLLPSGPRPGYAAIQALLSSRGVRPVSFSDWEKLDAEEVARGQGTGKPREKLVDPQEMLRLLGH

[2] = biological target: T2, DLD (aa 36-509), purified recombinant (human) (UniProt P09622); test: Temperature-Related Intensity Change (TRIC) fluorescence; FDX1 with DLD in vitro; which partner was labelled and the concentrations are not told; both purified
T2 sequence: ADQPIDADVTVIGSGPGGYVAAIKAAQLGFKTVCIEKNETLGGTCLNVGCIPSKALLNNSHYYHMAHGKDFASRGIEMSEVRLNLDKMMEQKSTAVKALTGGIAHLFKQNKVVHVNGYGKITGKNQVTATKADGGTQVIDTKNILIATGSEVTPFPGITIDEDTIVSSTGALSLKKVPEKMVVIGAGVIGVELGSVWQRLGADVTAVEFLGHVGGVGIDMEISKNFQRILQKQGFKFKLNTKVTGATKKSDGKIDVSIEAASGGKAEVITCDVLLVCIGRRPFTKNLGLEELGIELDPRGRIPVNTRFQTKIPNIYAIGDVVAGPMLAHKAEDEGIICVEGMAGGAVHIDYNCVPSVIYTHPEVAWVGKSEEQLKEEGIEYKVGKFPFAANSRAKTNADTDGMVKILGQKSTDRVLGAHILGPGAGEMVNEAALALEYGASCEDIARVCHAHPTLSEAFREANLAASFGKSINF

Row | Binder | binding [1] | binding [2]
1 | B1 | binds | –
2 | B2 | – | no binding
3 | B3 | binds | –
4 | B4 | binds | –
